The values that follow come from the supplement of paper PMC10849652.

The chains behind the UniProt entries cited, without tags or fusion partners. Where a name states a change or a piece, a line headed by the entry shows the natural chain unless it says otherwise.
UniProt Q15365, whole entry, looked up: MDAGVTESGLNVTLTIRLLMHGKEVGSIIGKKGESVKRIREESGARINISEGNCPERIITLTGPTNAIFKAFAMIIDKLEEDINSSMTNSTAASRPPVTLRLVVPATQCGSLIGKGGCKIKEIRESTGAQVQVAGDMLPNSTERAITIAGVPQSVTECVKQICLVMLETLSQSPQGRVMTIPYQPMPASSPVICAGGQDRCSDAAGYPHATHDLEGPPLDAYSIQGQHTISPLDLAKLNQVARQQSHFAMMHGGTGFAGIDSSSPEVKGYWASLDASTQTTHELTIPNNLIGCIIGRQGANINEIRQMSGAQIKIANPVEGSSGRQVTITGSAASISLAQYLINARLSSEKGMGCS
UniProt Q8NCN5: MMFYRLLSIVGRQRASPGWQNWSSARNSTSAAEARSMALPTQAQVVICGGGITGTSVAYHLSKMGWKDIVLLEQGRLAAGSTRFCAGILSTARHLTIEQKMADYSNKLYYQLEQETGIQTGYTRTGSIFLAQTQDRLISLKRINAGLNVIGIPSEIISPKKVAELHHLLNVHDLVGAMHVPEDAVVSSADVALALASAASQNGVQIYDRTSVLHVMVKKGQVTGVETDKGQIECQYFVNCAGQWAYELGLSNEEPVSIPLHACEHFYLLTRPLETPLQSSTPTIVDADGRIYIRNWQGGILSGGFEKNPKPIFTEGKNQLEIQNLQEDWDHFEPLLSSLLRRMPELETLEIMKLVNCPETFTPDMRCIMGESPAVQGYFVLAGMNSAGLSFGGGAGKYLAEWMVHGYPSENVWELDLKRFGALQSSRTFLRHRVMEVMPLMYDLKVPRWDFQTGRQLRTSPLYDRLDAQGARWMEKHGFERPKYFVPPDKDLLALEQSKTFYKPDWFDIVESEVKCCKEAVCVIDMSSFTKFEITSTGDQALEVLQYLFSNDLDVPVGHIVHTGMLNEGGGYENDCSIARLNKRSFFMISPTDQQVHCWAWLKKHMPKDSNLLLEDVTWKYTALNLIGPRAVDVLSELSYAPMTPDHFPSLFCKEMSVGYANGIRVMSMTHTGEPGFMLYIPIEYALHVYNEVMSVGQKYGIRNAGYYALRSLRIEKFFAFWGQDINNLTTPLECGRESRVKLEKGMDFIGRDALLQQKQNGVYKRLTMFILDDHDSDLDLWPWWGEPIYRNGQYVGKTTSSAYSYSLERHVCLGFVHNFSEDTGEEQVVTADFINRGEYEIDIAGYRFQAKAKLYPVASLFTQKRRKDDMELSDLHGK
UniProt Q96KB5: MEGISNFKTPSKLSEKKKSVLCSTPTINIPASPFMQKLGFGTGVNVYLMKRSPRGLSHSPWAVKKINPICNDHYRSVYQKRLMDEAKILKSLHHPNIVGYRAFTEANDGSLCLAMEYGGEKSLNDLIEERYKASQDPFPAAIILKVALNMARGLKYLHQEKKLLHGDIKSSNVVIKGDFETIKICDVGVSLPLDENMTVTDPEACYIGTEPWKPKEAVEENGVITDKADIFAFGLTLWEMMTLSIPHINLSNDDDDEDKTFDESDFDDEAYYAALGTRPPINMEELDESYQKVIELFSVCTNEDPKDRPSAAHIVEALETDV
UniProt O75381, whole entry, looked up: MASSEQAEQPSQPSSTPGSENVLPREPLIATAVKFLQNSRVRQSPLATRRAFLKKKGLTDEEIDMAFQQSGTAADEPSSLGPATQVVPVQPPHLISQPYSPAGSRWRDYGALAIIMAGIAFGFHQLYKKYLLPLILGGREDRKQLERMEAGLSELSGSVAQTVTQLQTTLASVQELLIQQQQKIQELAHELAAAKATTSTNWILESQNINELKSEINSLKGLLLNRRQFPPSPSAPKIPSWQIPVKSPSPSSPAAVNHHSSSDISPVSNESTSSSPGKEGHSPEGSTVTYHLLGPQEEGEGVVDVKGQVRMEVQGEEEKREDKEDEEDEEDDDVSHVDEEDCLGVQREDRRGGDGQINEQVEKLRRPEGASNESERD
UniProt Q9Y5Y5: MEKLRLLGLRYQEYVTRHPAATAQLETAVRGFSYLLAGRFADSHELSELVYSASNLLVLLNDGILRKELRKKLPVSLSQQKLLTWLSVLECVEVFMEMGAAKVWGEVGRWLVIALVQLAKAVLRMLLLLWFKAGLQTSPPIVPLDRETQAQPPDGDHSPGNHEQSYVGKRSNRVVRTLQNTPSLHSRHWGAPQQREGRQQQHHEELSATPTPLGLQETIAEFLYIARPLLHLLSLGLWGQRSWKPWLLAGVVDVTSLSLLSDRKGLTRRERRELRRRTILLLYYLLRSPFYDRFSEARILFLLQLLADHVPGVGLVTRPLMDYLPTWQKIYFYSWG
UniProt Q92968: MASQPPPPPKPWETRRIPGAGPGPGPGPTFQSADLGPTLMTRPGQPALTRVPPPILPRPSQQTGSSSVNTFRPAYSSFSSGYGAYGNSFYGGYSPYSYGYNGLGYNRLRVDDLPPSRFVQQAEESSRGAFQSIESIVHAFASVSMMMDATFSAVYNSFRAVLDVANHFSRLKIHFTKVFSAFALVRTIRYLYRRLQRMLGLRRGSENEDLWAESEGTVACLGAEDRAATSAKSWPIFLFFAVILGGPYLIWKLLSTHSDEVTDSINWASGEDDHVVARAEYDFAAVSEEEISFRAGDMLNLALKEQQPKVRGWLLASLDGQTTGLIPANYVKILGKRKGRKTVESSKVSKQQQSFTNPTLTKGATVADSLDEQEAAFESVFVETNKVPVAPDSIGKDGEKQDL
UniProt O60925, whole entry, looked up: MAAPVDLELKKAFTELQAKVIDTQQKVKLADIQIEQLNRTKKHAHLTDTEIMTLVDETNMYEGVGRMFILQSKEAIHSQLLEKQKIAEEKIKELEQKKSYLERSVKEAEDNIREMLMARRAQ
UniProt O95453: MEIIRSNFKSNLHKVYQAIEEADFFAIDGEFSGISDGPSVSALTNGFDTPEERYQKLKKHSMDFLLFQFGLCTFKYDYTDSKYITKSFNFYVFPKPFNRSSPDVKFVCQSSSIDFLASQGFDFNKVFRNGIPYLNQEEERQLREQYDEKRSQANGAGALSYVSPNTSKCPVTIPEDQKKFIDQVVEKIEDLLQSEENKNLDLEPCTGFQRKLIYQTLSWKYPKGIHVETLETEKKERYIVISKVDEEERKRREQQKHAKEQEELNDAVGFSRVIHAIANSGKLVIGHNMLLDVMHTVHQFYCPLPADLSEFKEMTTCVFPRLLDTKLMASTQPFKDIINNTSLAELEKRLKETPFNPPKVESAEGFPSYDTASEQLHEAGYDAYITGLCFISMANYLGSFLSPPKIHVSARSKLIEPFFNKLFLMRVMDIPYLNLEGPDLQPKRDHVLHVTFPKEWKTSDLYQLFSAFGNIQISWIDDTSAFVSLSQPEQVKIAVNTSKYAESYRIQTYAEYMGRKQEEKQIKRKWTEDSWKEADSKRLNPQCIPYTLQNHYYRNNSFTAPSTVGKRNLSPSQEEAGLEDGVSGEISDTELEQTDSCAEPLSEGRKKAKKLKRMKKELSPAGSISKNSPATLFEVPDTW
UniProt Q9NUG6, whole entry, looked up: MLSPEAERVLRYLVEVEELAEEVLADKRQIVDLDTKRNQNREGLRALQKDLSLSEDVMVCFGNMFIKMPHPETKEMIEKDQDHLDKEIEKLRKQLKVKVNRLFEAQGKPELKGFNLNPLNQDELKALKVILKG
UniProt Q8N0Y7: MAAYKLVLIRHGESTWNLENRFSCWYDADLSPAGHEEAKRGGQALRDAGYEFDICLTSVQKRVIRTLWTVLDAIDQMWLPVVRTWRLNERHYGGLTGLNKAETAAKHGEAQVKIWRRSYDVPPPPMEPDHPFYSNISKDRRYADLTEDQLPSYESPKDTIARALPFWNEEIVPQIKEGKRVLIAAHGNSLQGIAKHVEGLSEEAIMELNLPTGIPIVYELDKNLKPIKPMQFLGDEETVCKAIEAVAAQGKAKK
UniProt P61457: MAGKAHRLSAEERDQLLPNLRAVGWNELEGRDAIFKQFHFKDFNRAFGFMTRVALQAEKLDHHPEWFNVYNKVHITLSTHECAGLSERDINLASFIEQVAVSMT
UniProt Q99447: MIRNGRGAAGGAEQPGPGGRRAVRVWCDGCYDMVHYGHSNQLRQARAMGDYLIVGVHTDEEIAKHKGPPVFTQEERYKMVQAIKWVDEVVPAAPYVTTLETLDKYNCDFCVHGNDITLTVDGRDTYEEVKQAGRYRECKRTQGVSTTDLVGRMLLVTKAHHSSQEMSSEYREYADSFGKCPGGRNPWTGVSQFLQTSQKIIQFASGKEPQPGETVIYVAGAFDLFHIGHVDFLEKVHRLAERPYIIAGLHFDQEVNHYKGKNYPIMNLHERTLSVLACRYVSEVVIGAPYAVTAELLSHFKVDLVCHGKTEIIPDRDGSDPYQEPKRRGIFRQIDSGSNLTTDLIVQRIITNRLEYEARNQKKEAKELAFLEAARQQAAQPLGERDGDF
UniProt Q9BVG4: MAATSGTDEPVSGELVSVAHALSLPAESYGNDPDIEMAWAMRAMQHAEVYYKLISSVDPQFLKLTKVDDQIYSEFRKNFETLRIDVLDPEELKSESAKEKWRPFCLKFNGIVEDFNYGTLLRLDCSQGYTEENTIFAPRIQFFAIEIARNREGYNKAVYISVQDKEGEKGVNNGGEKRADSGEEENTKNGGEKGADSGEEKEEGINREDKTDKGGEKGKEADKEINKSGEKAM
UniProt Q9H6A9: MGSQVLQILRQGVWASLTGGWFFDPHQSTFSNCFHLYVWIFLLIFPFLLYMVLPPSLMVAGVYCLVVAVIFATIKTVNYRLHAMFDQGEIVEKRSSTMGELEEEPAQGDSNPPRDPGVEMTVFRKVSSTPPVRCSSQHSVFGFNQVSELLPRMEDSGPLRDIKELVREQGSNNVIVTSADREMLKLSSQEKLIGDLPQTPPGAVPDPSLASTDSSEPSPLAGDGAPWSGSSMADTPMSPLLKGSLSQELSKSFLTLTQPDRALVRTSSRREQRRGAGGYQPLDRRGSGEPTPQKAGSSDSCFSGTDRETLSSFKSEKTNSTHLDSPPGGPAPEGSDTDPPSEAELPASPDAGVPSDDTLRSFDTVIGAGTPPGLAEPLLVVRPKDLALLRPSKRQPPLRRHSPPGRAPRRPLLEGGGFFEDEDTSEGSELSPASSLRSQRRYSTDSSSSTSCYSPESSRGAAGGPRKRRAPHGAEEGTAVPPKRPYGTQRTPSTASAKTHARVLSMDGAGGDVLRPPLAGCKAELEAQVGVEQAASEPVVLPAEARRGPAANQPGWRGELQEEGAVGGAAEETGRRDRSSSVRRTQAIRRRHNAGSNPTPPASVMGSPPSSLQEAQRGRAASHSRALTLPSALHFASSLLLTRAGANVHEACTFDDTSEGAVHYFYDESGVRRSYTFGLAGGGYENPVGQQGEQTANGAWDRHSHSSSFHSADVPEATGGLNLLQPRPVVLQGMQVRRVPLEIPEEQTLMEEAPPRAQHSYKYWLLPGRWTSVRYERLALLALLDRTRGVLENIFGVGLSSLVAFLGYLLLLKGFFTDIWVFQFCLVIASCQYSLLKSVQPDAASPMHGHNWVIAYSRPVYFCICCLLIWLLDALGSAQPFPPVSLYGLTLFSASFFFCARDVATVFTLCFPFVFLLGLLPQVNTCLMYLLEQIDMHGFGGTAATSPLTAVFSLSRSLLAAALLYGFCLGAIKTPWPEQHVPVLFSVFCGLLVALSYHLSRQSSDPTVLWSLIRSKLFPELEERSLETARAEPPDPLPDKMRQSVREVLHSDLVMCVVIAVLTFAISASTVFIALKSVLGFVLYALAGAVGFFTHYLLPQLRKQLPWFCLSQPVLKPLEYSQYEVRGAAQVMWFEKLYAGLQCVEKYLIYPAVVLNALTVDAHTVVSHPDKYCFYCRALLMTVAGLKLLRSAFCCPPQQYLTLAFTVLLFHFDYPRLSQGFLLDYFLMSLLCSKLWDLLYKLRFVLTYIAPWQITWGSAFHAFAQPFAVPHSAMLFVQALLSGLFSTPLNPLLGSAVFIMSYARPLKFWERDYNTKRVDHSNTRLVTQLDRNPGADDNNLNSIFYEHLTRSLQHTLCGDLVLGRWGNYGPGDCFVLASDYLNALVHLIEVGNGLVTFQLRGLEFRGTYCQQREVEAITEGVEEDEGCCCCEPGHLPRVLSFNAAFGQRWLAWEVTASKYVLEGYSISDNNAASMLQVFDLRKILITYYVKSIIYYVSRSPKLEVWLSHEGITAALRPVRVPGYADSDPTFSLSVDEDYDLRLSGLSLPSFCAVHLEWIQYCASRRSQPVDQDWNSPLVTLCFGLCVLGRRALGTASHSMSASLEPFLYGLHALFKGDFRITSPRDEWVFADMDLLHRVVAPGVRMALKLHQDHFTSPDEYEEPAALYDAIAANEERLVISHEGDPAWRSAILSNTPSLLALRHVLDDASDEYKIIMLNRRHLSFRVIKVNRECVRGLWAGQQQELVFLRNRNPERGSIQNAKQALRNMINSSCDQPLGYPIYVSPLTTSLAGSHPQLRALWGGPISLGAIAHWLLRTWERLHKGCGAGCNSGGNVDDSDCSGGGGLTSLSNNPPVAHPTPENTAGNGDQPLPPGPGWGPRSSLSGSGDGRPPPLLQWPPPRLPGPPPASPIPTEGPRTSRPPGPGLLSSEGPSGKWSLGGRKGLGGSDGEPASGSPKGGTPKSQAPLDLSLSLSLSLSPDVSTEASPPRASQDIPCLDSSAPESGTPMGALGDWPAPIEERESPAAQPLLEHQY

This is one part of the list.

Compound in one assay: Cc1sc2c(c1C)C(c1ccc(Cl)cc1)=N[C@@H](CC(=O)OC(C)(C)C)c1nnc(C)n1-2
Description: log2 fold change, soluble protein after heating vs DMSO (PISA); higher = thermal stabilisation; K562 lysate, 10 uM; active = over 0.2 and 3.5 SD of the protein, either way, in both replicates (recomputed). The gist of the method:
(§1)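 Dounce homogenisation of K562 pellets in PBS pH 7.4 with 1 mM MgCl2 produced a crude extract, used at 1 mg/mL protein. Exposure to 10 μM compound lasted 30 min, and aliquots were then heated for 3 min across 48°C-58°C, pooled and brought to 0.5% NP-40 at 4°C. The supernatant after 21,000xg for 90 min was quantified by TMTpro 16plex LC-MS/MS with channel sums equalised. Duplicate values are given as log-two fold change in thermal stability relative to solvent controls.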
Take PCCA (UniProt P05165): the log2 fold change is inactive: 0.034.

Take PEX11B (UniProt O96011): the log2 fold change was inactive: -0.017.

For PFKFB3 isoform 4 (UniProt Q16875), the log2 fold change is inactive: 0.018.

PCNT (UniProt O95613): the log2 fold change is inactive: -0.035.

As to PEBP1 (UniProt P30086), the log2 fold change was inactive: 0.002.

Consider PARPBP (UniProt Q9NWS1), for which the log2 fold change is inactive: -0.142.

With PCBP1 (UniProt Q15365), the log2 fold change is inactive: 0.014.

In the case of PDPR (UniProt Q8NCN5), the log2 fold change is inactive: 0.001.

Regarding PCF11 (UniProt O94913), the log2 fold change is inactive: 0.008.

Take PDIA6 isoform 2 (UniProt Q15084): the log2 fold change was inactive: -0.015.

Take PDAP1 (UniProt Q13442): the log2 fold change is inactive: 0.084.

With PBK (UniProt Q96KB5), the log2 fold change is inactive: 0.023.

For PCBP2 (UniProt H3BRU6), the log2 fold change is inactive: 0.104.

In the case of PER3 isoform 2 (UniProt P56645), the log2 fold change is inactive: 0.094.

With PELP1 (UniProt Q8IZL8), the log2 fold change is inactive: -0.069.

Consider PDCD6IP (UniProt Q8WUM4), for which the log2 fold change was inactive: 0.043.

Consider PDLIM7 (UniProt Q9NR12), for which the log2 fold change is inactive: 0.023.

Consider PEX14 (UniProt O75381), for which the log2 fold change is inactive: -0.014.

For PEX16 isoform 2 (UniProt Q9Y5Y5), the log2 fold change was inactive: 0.016.

For the target PCYT1A (UniProt P49585), the log2 fold change is inactive: 0.001.

Take PEX13 (UniProt Q92968): the log2 fold change was inactive: 0.037.

For PAXBP1 (UniProt Q9Y5B6), the log2 fold change was inactive: 0.057.

Regarding PDLIM1 (UniProt O00151), the log2 fold change is inactive: 0.013.

Regarding PGGHG (UniProt Q32M88), the log2 fold change was inactive: -0.017.

For the target PDIA3 (UniProt P30101), the log2 fold change was inactive: 0.015.

As to PFDN1 (UniProt O60925), the log2 fold change is inactive: 0.012.

For PFKP (UniProt Q01813), the log2 fold change is inactive: -0.031.

For the target PCIF1 (UniProt Q9H4Z3), the log2 fold change was inactive: 0.066.

Take PARN (UniProt O95453): the log2 fold change is inactive: -0.012.

For the target PDRG1 (UniProt Q9NUG6), the log2 fold change is inactive: 0.012.

With PDCL (UniProt Q13371), the log2 fold change was inactive: -0.004.

As for PDCD2L (UniProt Q9BRP1), the log2 fold change is inactive: -0.084.

For PGAM4 (UniProt Q8N0Y7), the log2 fold change was inactive: -0.061.

Take PCBD1 (UniProt P61457): the log2 fold change is inactive: -0.034.

Regarding PCYT2 isoform 3 (UniProt Q99447), the log2 fold change is inactive: -0.033.

Regarding PARVB (UniProt Q9HBI1), the log2 fold change was inactive: 0.009.

PFDN2 (UniProt Q9UHV9): the log2 fold change is inactive: -0.008.

In the case of PBDC1 (UniProt Q9BVG4), the log2 fold change is inactive: -0.019.

In the case of PCNX3 (UniProt Q9H6A9), the log2 fold change is inactive: -0.013.

As for PDF (UniProt Q9HBH1), the log2 fold change was inactive: 0.024.

Compound in another assay: c1ccc([C@@H]2C[C@H]2NC2CCNCC2)cc1
The description is as above. The gist of the method: as §1
With PCCA (UniProt P05165), the log2 fold change is inactive: 0.005.

As for PEX11B (UniProt O96011), the log2 fold change is inactive: 0.271.

Turning to PFKFB3 isoform 4 (UniProt Q16875), the log2 fold change is inactive: 0.041.

In the case of PCNT (UniProt O95613), the log2 fold change was inactive: -0.09.

As for PEBP1 (UniProt P30086), the log2 fold change was inactive: -0.005.

PARPBP (UniProt Q9NWS1): the log2 fold change is inactive: -0.143.

In the case of PCBP1 (UniProt Q15365), the log2 fold change was inactive: -0.03.

For the target PDPR (UniProt Q8NCN5), the log2 fold change is inactive: -0.02.

On to PCF11 (UniProt O94913), for which the log2 fold change was inactive: 0.079.

As for PDIA6 isoform 2 (UniProt Q15084), the log2 fold change was inactive: 0.005.

As for PDAP1 (UniProt Q13442), the log2 fold change is inactive: -0.112.

Regarding PBK (UniProt Q96KB5), the log2 fold change is inactive: 0.029.

With PCBP2 (UniProt H3BRU6), the log2 fold change was inactive: -0.11.

Turning to PER3 isoform 2 (UniProt P56645), the log2 fold change is inactive: -0.004.

Take PELP1 (UniProt Q8IZL8): the log2 fold change is inactive: 0.045.

Consider PDCD6IP (UniProt Q8WUM4), for which the log2 fold change was inactive: 0.085.

PDLIM7 (UniProt Q9NR12): the log2 fold change was inactive: 0.004.

On to PEX14 (UniProt O75381), for which the log2 fold change is inactive: 0.01.

For PEX16 isoform 2 (UniProt Q9Y5Y5), the log2 fold change was inactive: 0.093.

For PCYT1A (UniProt P49585), the log2 fold change was inactive: 0.033.

PEX13 (UniProt Q92968): the log2 fold change is inactive: 0.001.

In the case of PAXBP1 (UniProt Q9Y5B6), the log2 fold change was inactive: 0.001.

PDLIM1 (UniProt O00151): the log2 fold change is inactive: -0.039.

As to PGGHG (UniProt Q32M88), the log2 fold change is inactive: -0.02.

With PDIA3 (UniProt P30101), the log2 fold change was inactive: 0.033.

PFDN1 (UniProt O60925): the log2 fold change is inactive: 0.132.

Consider PFKP (UniProt Q01813), for which the log2 fold change is inactive: 0.027.

Take PCIF1 (UniProt Q9H4Z3): the log2 fold change was inactive: -0.111.

For PARN (UniProt O95453), the log2 fold change is inactive: 0.01.

Turning to PDRG1 (UniProt Q9NUG6), the log2 fold change is inactive: -0.097.

Turning to PDCL (UniProt Q13371), the log2 fold change is inactive: -0.01.

As for PDCD2L (UniProt Q9BRP1), the log2 fold change is inactive: -0.013.

As to PGAM4 (UniProt Q8N0Y7), the log2 fold change is inactive: -0.021.

PCBD1 (UniProt P61457): the log2 fold change was inactive: -0.065.

As for PCYT2 isoform 3 (UniProt Q99447), the log2 fold change is inactive: 0.004.

As for PARVB (UniProt Q9HBI1), the log2 fold change is inactive: 0.05.

As for PFDN2 (UniProt Q9UHV9), the log2 fold change was inactive: 0.063.

Regarding PBDC1 (UniProt Q9BVG4), the log2 fold change was inactive: 0.026.

Consider PCNX3 (UniProt Q9H6A9), for which the log2 fold change is inactive: 0.121.

For PDF (UniProt Q9HBH1), the log2 fold change is inactive: 0.028.
